According to the supplement of paper PMC7666118:
Some of the results follow.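 Rule for the calls: active = dose-dependent thermal stabilisation significant by F-test of dose-response against flat model at 10% FDR; inactive = not significant.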

Protein sequences, listed by entry. Tags and fused reporters are not part of them. Lines headed by an entry give the natural chain unless they say otherwise; changes in a name come on top.
UniProt P52294, whole entry: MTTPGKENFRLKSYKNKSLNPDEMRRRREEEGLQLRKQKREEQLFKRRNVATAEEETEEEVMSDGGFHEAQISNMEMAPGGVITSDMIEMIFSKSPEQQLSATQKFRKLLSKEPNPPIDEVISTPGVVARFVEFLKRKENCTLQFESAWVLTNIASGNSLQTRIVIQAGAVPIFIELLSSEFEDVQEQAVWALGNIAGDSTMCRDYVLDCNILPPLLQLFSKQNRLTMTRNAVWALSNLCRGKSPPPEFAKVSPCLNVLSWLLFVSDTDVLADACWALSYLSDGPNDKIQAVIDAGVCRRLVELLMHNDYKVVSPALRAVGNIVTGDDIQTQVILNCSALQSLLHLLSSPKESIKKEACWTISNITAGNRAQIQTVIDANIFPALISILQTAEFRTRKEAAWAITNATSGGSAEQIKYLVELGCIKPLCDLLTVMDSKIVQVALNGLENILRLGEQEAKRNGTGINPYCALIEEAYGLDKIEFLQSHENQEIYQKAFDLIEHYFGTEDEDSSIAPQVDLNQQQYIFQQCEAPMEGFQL
UniProt Q6YN16: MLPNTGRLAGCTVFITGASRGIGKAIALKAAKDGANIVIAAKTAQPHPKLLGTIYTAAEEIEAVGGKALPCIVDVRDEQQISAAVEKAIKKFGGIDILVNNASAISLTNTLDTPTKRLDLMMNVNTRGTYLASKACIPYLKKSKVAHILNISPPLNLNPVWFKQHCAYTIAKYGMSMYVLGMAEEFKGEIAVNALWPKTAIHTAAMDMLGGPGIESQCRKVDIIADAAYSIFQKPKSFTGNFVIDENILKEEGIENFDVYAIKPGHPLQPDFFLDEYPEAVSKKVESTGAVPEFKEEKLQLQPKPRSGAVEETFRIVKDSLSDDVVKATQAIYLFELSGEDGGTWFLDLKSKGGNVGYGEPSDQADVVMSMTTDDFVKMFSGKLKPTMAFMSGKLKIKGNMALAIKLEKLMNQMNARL
UniProt Q9UK53: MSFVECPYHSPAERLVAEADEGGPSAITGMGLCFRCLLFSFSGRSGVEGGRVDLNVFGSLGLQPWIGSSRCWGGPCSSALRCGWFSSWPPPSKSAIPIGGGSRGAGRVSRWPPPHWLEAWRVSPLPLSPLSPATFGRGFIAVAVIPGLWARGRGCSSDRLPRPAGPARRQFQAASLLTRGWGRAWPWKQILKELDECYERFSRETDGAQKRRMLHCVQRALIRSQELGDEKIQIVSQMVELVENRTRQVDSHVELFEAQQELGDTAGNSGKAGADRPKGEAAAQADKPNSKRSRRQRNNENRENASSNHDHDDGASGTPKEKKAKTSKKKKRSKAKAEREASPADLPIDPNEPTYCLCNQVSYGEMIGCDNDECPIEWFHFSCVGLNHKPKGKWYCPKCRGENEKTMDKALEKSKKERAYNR
UniProt P00492: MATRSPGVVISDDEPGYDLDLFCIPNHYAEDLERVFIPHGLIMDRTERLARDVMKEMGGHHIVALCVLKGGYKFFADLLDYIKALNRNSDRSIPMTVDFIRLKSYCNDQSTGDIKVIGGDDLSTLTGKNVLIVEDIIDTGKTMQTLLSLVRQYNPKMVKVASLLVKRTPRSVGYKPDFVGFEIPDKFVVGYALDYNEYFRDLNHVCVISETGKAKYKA
UniProt Q5SSJ5: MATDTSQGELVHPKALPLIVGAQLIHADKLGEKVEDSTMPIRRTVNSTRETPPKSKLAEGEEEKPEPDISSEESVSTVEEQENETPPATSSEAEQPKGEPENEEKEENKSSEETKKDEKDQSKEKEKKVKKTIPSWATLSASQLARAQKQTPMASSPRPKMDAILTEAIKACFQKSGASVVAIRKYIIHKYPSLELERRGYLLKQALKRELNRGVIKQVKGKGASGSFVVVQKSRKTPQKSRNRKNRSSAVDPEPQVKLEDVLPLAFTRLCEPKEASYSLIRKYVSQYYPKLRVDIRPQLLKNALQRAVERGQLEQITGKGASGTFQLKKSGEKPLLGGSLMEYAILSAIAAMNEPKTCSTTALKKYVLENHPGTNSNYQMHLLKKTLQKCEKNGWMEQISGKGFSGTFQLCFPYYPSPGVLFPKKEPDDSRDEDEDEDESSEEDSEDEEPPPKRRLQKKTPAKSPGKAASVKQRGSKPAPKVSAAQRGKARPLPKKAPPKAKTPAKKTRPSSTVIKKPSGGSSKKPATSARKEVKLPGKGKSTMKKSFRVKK
UniProt P61604, whole entry: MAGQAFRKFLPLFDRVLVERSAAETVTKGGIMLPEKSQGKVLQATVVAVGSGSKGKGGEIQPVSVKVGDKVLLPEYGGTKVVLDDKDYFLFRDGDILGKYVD
UniProt Q14974, whole entry: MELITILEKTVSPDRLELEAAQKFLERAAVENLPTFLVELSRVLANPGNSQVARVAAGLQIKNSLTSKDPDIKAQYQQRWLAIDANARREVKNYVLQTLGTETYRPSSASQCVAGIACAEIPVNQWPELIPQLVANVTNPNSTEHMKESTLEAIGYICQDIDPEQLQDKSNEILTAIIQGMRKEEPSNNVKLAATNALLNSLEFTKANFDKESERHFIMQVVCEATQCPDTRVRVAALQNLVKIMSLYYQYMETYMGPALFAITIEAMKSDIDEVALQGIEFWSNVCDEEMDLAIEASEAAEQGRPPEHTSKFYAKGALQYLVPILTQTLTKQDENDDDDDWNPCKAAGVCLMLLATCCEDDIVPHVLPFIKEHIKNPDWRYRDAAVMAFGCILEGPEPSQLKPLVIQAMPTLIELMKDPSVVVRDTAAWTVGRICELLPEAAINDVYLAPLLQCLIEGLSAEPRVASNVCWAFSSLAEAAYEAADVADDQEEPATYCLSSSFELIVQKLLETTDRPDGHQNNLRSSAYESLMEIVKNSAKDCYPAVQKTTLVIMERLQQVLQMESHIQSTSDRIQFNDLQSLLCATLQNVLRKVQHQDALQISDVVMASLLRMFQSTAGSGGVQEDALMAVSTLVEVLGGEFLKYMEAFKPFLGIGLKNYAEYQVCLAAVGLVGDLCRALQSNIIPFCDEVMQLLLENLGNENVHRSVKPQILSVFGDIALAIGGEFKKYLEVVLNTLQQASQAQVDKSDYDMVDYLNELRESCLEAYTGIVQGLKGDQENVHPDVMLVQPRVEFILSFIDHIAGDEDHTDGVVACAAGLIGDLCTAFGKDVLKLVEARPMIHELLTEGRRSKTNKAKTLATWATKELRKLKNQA
UniProt Q9H0C8: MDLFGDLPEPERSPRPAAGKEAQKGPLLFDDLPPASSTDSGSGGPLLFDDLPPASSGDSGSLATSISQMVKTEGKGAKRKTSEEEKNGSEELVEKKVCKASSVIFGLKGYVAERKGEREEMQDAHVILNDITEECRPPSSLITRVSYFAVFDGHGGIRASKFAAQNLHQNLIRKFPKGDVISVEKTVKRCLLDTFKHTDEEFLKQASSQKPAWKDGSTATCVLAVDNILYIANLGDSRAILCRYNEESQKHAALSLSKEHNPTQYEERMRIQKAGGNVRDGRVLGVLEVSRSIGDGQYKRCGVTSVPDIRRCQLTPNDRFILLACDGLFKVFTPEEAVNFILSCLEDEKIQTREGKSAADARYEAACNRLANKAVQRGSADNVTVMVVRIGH
UniProt P18065: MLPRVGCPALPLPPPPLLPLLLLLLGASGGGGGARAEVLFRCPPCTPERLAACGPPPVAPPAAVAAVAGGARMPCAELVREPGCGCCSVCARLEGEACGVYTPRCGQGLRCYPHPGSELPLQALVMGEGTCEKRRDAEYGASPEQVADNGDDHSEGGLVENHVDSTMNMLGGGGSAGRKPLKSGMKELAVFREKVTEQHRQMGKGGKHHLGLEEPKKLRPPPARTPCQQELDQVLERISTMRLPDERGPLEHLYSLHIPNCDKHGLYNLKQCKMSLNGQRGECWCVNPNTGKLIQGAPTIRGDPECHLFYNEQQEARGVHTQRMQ
UniProt O75874, whole entry: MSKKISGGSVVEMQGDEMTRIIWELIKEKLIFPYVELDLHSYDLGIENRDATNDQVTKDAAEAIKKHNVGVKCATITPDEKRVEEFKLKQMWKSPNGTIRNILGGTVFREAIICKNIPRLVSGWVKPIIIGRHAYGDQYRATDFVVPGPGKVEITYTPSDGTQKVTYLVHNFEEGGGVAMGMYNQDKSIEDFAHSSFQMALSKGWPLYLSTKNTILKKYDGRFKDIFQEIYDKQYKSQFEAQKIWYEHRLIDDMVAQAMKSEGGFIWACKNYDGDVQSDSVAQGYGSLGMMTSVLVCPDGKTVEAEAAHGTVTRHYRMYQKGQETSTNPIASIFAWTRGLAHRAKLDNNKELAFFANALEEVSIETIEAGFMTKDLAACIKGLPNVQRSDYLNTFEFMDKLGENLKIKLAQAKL
UniProt Q9BXK1: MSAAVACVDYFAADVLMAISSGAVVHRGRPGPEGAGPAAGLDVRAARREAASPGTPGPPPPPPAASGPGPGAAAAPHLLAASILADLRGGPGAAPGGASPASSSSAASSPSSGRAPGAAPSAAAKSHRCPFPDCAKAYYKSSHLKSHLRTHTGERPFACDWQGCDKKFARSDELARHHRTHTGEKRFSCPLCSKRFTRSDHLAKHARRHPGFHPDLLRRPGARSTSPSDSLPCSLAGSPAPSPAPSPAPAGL
UniProt Q9BVA0, whole entry: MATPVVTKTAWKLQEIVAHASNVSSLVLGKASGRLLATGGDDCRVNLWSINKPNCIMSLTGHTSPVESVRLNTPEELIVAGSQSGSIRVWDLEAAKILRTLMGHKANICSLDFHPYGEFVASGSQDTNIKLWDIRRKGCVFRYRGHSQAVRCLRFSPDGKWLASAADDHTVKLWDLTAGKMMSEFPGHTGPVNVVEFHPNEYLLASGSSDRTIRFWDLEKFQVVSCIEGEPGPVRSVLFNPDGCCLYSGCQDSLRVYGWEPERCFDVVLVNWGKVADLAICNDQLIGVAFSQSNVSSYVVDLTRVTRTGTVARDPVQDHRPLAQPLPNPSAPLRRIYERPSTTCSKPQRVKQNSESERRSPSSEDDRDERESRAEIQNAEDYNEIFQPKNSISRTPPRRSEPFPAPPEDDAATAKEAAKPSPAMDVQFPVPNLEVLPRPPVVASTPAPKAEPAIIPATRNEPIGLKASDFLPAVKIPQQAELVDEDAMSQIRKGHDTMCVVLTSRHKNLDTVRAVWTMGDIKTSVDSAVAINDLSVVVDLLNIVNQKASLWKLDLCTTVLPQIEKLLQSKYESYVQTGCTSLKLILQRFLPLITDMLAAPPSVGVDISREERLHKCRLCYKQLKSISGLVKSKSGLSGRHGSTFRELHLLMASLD
UniProt Q9NSE4: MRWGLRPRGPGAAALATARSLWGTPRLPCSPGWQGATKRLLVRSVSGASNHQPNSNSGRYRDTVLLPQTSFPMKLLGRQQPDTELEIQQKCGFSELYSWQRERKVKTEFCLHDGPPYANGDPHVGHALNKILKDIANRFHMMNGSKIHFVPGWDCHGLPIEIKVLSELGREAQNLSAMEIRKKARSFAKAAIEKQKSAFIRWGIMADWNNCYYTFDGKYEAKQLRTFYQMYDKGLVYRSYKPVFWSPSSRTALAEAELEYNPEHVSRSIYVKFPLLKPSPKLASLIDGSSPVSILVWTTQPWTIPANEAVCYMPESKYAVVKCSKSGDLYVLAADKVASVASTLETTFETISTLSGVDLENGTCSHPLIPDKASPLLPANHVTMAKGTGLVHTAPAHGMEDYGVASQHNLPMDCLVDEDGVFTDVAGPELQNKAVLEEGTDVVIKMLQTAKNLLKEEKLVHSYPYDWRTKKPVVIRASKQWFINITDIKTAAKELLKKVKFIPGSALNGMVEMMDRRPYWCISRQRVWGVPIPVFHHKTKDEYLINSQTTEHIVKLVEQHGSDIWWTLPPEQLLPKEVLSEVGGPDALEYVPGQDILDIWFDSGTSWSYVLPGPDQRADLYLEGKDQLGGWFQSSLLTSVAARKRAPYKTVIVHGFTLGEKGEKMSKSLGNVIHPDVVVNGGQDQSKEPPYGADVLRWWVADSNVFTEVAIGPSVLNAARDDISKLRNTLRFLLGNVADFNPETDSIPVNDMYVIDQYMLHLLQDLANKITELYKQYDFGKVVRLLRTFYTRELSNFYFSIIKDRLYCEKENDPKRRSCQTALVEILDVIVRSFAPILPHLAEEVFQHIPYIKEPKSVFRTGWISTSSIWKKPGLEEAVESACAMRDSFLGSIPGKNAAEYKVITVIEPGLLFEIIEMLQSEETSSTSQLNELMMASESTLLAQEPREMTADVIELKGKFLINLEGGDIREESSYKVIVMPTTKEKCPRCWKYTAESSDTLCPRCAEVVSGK
UniProt Q53T59: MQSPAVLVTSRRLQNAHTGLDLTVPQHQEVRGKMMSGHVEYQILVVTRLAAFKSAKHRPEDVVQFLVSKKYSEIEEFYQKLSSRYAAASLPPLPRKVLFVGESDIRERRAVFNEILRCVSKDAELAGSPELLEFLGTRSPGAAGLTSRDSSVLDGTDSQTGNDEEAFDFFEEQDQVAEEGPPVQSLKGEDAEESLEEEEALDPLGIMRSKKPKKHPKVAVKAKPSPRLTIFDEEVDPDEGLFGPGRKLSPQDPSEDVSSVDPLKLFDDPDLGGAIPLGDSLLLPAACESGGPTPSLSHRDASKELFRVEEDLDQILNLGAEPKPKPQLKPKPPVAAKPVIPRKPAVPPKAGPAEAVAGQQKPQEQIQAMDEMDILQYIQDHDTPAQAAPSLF

Compound: Nc1nc2c(ncn2[C@@H]2O[C@H](COP(=O)(O)OP(=O)(O)OP(=O)(O)O)[C@@H](O)[C@H]2O)c(=O)[nH]1
Assay: dose-dependent thermal stabilisation call (2D-TPP, DLPTP, 10% FDR) (binary (1 = stabilised)); higher = stabilised by the compound
Conditions: system: Jurkat gel-filtered lysate; concentration range 1-500 µM
Protocol: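 2D thermal proteome profiling in gel-filtered Jurkat E6.1 lysate (2 mg/ml) treated with NaGTP (0, 1, 10, 100, 500 uM) for 10 min at room temperature, then heated 3 min at one of 12 temperatures (42-63.9 C). Soluble protein was quantified by TMT10 MS. The value is the DLPTP call of the paper: dose-dependent thermal stabilisation over all temperatures at 10% FDR (F-test of a dose-response against a flat model); one experiment, one call per tested protein.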

Target	dose-dependent thermal stabilisation call
KPNA1 (UniProt P52294)	active: 1
HSPA5 (UniProt P11021)	active: 1
HSDL2 (UniProt Q6YN16)	inactive: 0
HSD17B4 (UniProt P51659)	inactive: 0
HSP90AB1 (UniProt P08238)	inactive: 0
LARP4 (UniProt Q71RC2)	inactive: 0
ING1 (UniProt Q9UK53)	inactive: 0
ITCH (UniProt Q96J02)	inactive: 0
HPRT1 (UniProt P00492)	inactive: 0
ITPA (UniProt Q9BY32)	inactive: 0
LAMTOR5 (UniProt O43504)	inactive: 0
KDM1A (UniProt O60341)	inactive: 0
HP1BP3 (UniProt Q5SSJ5)	inactive: 0
LARS2 (UniProt Q15031)	active: 1
HSPE1 (UniProt P61604)	inactive: 0
LMO7 (UniProt Q8WWI1)	inactive: 0
KPNB1 (UniProt Q14974)	active: 1
IFIT5 (UniProt Q13325)	inactive: 0
KMT2A (UniProt Q03164)	inactive: 0
INTS13 (UniProt Q9NVM9)	active: 1

Target	dose-dependent thermal stabilisation call
IFT22 (UniProt Q9H7X7)	inactive: 0
ILKAP (UniProt Q9H0C8)	inactive: 0
IRF3 (UniProt Q14653)	inactive: 0
KIF21B (UniProt O75037)	inactive: 0
KBTBD2 (UniProt Q8IY47)	inactive: 0
HYPK (UniProt Q9NX55)	inactive: 0
IVD (UniProt P26440)	inactive: 0
KDM2B (UniProt Q8NHM5)	inactive: 0
ILK (UniProt Q13418)	active: 1
IGFBP2 (UniProt P18065)	inactive: 0
IDH1 (UniProt O75874)	inactive: 0
HTT (UniProt P42858)	active: 1
JMJD6 (UniProt Q6NYC1)	inactive: 0
KLF16 (UniProt Q9BXK1)	inactive: 0
KATNB1 (UniProt Q9BVA0)	inactive: 0
IARS2 (UniProt Q9NSE4)	inactive: 0
IQGAP1 (UniProt P46940)	inactive: 0
HS1BP3 (UniProt Q53T59)	inactive: 0
HPF1 (UniProt Q9NWY4)	active: 1
KHSRP (UniProt Q92945)	inactive: 0

At a glance, part of the list above:
Target	dose-dependent thermal stabilisation call
IFIT5 (UniProt Q13325)	inactive: 0
KMT2A (UniProt Q03164)	inactive: 0
